Reference: article PMC7819943, “Rice protein-binding microarrays: a tool to detect cis-acting elements near promoter regions in rice”
The list shows a part of the results.

Amino acid sequences for entries named in this document (tags omitted).
UniProt Q0JBA9, entry or part of it: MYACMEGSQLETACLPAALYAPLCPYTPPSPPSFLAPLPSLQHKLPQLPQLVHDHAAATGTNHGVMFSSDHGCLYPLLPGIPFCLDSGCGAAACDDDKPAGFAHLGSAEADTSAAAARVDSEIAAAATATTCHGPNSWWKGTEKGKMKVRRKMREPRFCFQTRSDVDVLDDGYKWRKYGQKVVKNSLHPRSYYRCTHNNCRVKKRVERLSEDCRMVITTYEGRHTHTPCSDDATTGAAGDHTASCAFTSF

The sequences below were run against OsWRKY34 (Oryza sativa, UniProt Q0JBA9 1-250) (assay: protein-binding microarray (RPBM); PBS, 2% BSA, 51.3 ng/ul salmon testes DNA, 50 uM zinc acetate, 200 nM TF, 25 C, 1 h; high values mean tight binding). Settings: protein: recombinant; tags: N-terminal polyhistidine and DsRed monomer fusion (pET32a); label: CyDye5-dUTP incorporated in the synthesized complementary strand; 3' TTTTT single-stranded linker to array surface; dsDNA, one strand shown.
Procedure, shortened: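 Binding signal here means per-feature fluorescence intensity in arbitrary units. The values were read on an Axon 4000B scanner after a custom Agilent array, double-stranded by primer extension with Cy5-dUTP, was incubated with 200 nM protein at 25 °C for 1 h in PBS with 2% BSA, salmon testes DNA and 50 µM zinc acetate, then washed. The proteins were transcription factors with an N-terminal polyhistidine tag and DsRed, expressed in E. coli BL21-CodonPlus and purified on Ni–NTA.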
“CGCAAGCGATCTTTTCACTTTGAGCTACTGTACCTTTTTTCGGAGTCACCTAGTGCAG” was tested, and the binding signal was 8980 fluorescence intensity (a.u.).
“TGACGACCAGCTGAAACACGCGCGCGCGCGCCCACACACACGGAGTCACCTAGTGCAG” was tested, and the binding signal was 8050 fluorescence intensity (a.u.).
For “GATATCTACTTGCTTTTATTTTTGCTTGAACCATGACAATCGGAGTCACCTAGTGCAG”, the binding signal was 9150 fluorescence intensity (a.u.).
For “CCGCTACCGTTGGCCACCACAAGATACAAGCTCGCTATGCCGGAGTCACCTAGTGCAG”, the binding signal was 8470 fluorescence intensity (a.u.).
With “GCTGTGTTTTCTTTTCTTACATACTCTATCTCTGAGATTCCGGAGTCACCTAGTGCAG” the binding signal was 8110 fluorescence intensity (a.u.).
“GTTAGCGTTGGTGTCAATTTCTTTCTTGCTTGCTTCCAACCGGAGTCACCTAGTGCAG” was tested, and the binding signal was 8070 fluorescence intensity (a.u.).
“CCACTCACTTTCCCCACACGCGTTCGTCACTCCAAGCTCGCGGAGTCACCTAGTGCAG” was tested, and the binding signal was 9900 fluorescence intensity (a.u.).
With “GTTTTTTGTTTTTAAGTAACCTTTCCCCTTGTCACTTTTTCGGAGTCACCTAGTGCAG” the binding signal was 8130 fluorescence intensity (a.u.).
In the case of “AACTAGAATCCTATCTACCTCACGTTTTCTCCAGCTGTCCCGGAGTCACCTAGTGCAG”, the binding signal is reported as 8620 fluorescence intensity (a.u.).
For “AACTACATTTGGGCCAGCTCTTCTTCCTTTGATTTGAAAACGGAGTCACCTAGTGCAG”, the binding signal was 8150 fluorescence intensity (a.u.).
With “GTGGTAGTGGTGGCTCAATGACGAGGAGGGGCGGCGAGAGCGGAGTCACCTAGTGCAG” the binding signal was 9160 fluorescence intensity (a.u.).
For “CCAACAGTGCTGTTGTCGCCACGCTCTTTGTGTTGCTGCCCGGAGTCACCTAGTGCAG”, the binding signal was 8380 fluorescence intensity (a.u.).
“AAAAATTCTGACGCCTATACTTGCATTTTTGACTGTTTGCCGGAGTCACCTAGTGCAG” was tested, and the binding signal was 11000 fluorescence intensity (a.u.).
With “TAATTTGCGATTTCGGGCTAGGGTTTCTTTCCAACTTTTTCGGAGTCACCTAGTGCAG” the binding signal was 10000 fluorescence intensity (a.u.).
With “ATCCCGCTCCTCGTCTCCTCTCCGAAGTCTCCTCTTGTCACGGAGTCACCTAGTGCAG” the binding signal was 10200 fluorescence intensity (a.u.).
In the case of “TTCATCGTGTTCGTCATTTTTCCTTTTTCTTCCTCCTCTCCGGAGTCACCTAGTGCAG”, the binding signal is reported as 8570 fluorescence intensity (a.u.).
“ATTCTTTCTTTTTGGCCTCCTCTCCTCTTGTCTCGCTCTTCGGAGTCACCTAGTGCAG” was tested, and the binding signal was 10700 fluorescence intensity (a.u.).
With “GCACCCACAGTTCCATGAGACACATAGAAGTTTTACACAACGGAGTCACCTAGTGCAG” the binding signal was 10600 fluorescence intensity (a.u.).
In the case of “ACCAAGCCCTAGTCCCCGCCACGCCACCGTCCGCCGGCCGCGGAGTCACCTAGTGCAG”, the binding signal is reported as 9930 fluorescence intensity (a.u.).
In the case of “GCTATGCACCACACTCTTCGGCTTGCGTCAATATTCTACACGGAGTCACCTAGTGCAG”, the binding signal is reported as 8270 fluorescence intensity (a.u.).
“AATCTGACTGAAGTATGTACTTTGTGTTGACCAATTTGGCCGGAGTCACCTAGTGCAG” was tested, and the binding signal was 10200 fluorescence intensity (a.u.).
For “TGTCTTTATTTTGTGAGAGTACTCCAACCCACTCTAATTCCGGAGTCACCTAGTGCAG”, the binding signal was 9330 fluorescence intensity (a.u.).
“ATGCATCTTTACCCCTTTTGCACCCATGCATTGCTTGTGACGGAGTCACCTAGTGCAG” was tested, and the binding signal was 9660 fluorescence intensity (a.u.).
